Assay results published in patent US20120121706A1 (TUFTS MEDICAL CENTER, published 2012).
Results are given in words; binding and its absence hold for the method and conditions named. In cells and extracts the contact can be indirect. Some entries that bind do so weakly or less than the wild type.

Sequences of proteins named here, by UniProt entry; tags and fusion partners are left off. A change or cut given only in a name is not applied to a line headed by its entry.
UniProt P17301: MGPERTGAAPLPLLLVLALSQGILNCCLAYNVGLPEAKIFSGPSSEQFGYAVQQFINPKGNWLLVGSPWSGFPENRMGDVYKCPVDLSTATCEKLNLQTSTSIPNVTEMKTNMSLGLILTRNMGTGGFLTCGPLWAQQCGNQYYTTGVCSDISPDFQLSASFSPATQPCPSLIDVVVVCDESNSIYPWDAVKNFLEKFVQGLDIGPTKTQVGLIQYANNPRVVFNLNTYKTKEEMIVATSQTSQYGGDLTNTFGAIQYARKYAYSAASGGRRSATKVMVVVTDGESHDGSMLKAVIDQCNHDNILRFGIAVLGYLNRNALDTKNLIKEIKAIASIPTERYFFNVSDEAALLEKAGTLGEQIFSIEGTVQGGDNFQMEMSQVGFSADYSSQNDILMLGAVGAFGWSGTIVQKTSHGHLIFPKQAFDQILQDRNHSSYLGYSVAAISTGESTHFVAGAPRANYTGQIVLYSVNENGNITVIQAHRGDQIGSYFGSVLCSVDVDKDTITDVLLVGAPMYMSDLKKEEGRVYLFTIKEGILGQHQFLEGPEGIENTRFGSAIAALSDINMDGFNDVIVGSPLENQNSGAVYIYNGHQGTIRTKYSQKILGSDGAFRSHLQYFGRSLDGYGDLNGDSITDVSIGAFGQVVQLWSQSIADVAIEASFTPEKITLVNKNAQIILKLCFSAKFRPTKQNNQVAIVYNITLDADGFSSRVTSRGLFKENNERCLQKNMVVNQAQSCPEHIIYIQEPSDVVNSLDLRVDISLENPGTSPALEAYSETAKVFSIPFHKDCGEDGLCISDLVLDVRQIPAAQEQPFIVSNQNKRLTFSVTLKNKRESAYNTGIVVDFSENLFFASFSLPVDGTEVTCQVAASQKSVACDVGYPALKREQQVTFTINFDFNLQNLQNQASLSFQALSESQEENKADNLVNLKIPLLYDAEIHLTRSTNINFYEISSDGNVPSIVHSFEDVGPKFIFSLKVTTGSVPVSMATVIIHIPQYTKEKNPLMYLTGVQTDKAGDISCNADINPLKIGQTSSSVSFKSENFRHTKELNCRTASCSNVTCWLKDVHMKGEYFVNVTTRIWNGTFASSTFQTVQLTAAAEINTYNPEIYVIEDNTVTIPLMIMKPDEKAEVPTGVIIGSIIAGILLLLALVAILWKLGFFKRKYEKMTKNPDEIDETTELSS
UniProt P05556: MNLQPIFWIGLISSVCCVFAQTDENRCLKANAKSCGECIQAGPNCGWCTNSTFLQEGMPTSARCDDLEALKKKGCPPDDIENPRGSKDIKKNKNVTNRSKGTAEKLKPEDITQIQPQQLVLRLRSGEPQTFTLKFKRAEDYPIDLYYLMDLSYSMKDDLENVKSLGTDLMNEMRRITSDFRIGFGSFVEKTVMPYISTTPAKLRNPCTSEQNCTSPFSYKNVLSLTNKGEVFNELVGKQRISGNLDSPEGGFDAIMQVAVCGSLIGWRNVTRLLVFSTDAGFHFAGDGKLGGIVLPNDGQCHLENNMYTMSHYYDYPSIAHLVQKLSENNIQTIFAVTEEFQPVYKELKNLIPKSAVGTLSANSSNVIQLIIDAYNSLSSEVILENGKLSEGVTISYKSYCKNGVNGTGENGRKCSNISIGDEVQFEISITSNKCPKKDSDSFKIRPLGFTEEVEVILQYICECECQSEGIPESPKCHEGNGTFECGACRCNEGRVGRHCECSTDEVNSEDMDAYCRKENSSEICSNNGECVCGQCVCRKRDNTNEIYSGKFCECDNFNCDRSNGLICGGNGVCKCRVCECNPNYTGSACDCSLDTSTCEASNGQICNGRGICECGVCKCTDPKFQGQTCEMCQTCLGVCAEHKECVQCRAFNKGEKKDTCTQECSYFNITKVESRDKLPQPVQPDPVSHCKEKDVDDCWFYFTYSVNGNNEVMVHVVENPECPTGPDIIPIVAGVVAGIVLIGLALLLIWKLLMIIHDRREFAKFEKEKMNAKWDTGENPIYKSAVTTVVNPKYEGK

Experiments:
[1] = target: T1, α2β1 integrin (collagen receptor) of human platelets (human) (UniProt P17301+P05556); experiment: co-immunoprecipitation, FIG. 1D legend
[2] = target: T1, α2β1 integrin (collagen receptor) of human platelets (human); experiment: co-immunoprecipitation from resting human platelet lysates (anti-α2, anti-β1), Western for MMP-1

binding [1]: binds | binding [2]: binds
B1: proMMP-1 (platelet-associated zymogen of MMP-1) (enzyme, human, UniProt P03956 20-469, looked up)
chain: FPATLETQEQDVDLVQKYLEKYYNLKNDGRQVEKRRNSGPVVEKLKQMQEFFGLKVTGKPDAETLKVMKQPRCGVPDVAQFVLTEGNPRWEQTHLTYRIENYTPDLPRADVDHAIEKAFQLWSNVTPLTFTKVSEGQADIMISFVRGDHRDNSPFDGPGGNLAHAFQPGPGIGGDAHFDEDERWTNNFREYNLHRVAAHELGHSLGLSHSTDIGALMYPSYTFSGDVQLAQDDIDGIQAIYGRSQNPVQPIGPQTPKACDSKLTFDAITTIRGEVMFFKDRFYMRTNPFYPEVELNFISVFWPQLPNGLEAAYEFADRDEVRFFKGNKYWAVQGQNVLHGYPKDIYSSFGFPRTVKHIDAALSEENTGKTYFFVANKYWRYDEYKRSMDPGYPKMIAHDFPGIGHKVDAVFMKDGFFYFFHGTRQYKFDPKTKRILTLQKANSWFNCRKN
notes: Endogenous protein co-immunoprecipitated from platelet lysates; detected by Western with AB8105 or AB806; also called MMP-1 (predominantly in the pro form)
